The experiment addresses T1, coiled-coil domain of Bik1 (Bik1-CC, residues 182–396) (S. cerevisiae) (UniProt P11709).
T1 sequence: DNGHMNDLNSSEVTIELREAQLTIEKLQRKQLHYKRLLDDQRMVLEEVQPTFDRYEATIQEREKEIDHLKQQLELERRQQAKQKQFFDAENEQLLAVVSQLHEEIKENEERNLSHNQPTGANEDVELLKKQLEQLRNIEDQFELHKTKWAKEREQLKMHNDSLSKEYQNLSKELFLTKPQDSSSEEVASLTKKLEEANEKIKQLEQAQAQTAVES
In words: SEC-MALS; 25°C; 20 mM Tris-HCl pH 7.5, 150 mM NaCl, 1 mM DTT; 4–8 mg/ml of each protein applied, single proteins and mixtures (Bik1-CC, Kip2-NMD, Kip2-NMD-ΔT); both purified.

Results are given in words; binding and its absence hold for the method and conditions named.

B1: Kip2-NMD-ΔT (truncated non-motor domain of Kip2, residues 504–645) (domain or fragment, S. cerevisiae, UniProt P28743 504-645, looked up)
chain: SNGNNDGDKDRTIELLRRQLEEQRRMISELKNRSNIGEPLTKSSNESTYKDIKATGNDGDPNLALMRAENRVLKYKLENCEKLLDKDVVDLQDSEIMEIVEMLPFEVGTLLETKFQGLESQIRQYRKYTQKLEDKIMALEKS
notes: Kip2 non-motor domain lacking the C-terminal tail, S. cerevisiae, residues 504–645; Dimer by SEC-MALS (34 kD); also called Kip2-NMD-∆T; source: E. coli BL21 (DE3), purified (IMAC, SEC); not shown: His6, N-terminal, cleaved
In the case of B1, the binding entry is reported as “no binding (tested: 4–8 mg/ml applied)”.

(Values after article PMC10130750, “The motor domain of the kinesin Kip2 promotes microtubule polymerization at microtubule tips” (The Journal of Cell Biology, 2023).)
